Series [1] can be described thus: peptide made by a vendor (peptide synthesis; TentaGel HL NH2 with HMBA linker; HCTU/NMM). Particulars: whole synthesis, scale of the general procedure 30 mg resin per peptide.
A short description of series [2]: general procedure: Fmoc solid-phase peptide synthesis; TentaGel HL NH2 with HMBA linker; HCTU/NMM. Particulars: for crude mass / crude yield: whole synthesis; for crude yield: scale of the general procedure 30 mg resin per peptide.

For part of these data: One purity is given for all peptides; the source may state it once. For part of these data: HELM strings list residues between dots; [ac] is acetyl, [am] amide, other brackets name non-standard units. Bounds are passed on as bounds.

For FAM-5-ADAMTS4-specific peptide, the “final purity (method not given)” value in series [1] is above 95%. In turn, ADAMTS4-specific probe (Eu) yielded a step yield in series [2] (late stage modification step) of 60% yield. For DOTA-ADAMTS4-specific peptide, the “final purity (method not given)” value in series [1] is above 95%. On the same count and under the same terms, the value for ADAMTS4-specific peptide Cy5 was above 95%. In series [2], “PEPTIDE1{C.F.H.P.Y.C.S.[TTDS].[TTDS].S.R.G.[am]}$PEPTIDE1,PEPTIDE1,1:R3-6:R3$$$V2.0” yielded a crude mass of 17 mg and a crude yield of 68%. For ADAMTS4-specific peptide FAM-5, the “final purity (method not given)” value in series [1] is given as above 95%. As for “PEPTIDE1{C.S.R.R.G.C.S.[TTDS].[TTDS].S.R.G.[am]}$PEPTIDE1,PEPTIDE1,1:R3-6:R3$$$V2.0”, in series [2], the crude mass amounted to 17 mg and the crude yield is listed as 71%.
